According to the supplement of paper PMC8728848:
Some of the results follow.

Key:
Assay in all cases: glycan array binding signal (z-score within array); higher = stronger binding
Conditions in all cases: glycan notation: IUPAC condensed, linker removed
[1] = molecular target: Fuc(a1-2)Gal
Summary of the method: (§1)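 The Consortium for Functional Glycomics database supplied 3228 glycan arrays, of which those lacking an available protein sequence were dropped. The binding signal, a within-array Z-score, was averaged across arrays of the same protein sequence and across linkers. Negative scores can be read as non-binding.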

[2] = molecular target: Fuc(a1-2)Gal(b1-3)GalNAc
Summary of the method: as §1

[3] = molecular target: Fuc(a1-2)Gal(b1-3)GalNAc(a1-3)[Fuc(a1-2)]Gal(b1-4)Glc
Summary of the method: as §1

[4] = molecular target: Fuc(a1-2)Gal(b1-3)GalNAc(a1-3)[Fuc(a1-2)]Gal(b1-4)GlcNAc
Summary of the method: as §1

[5] = molecular target: Fuc(a1-2)Gal(b1-3)GalNAc(b1-3)Gal
Summary of the method: as §1

[6] = molecular target: Fuc(a1-2)Gal(b1-3)GalNAc(b1-3)Gal(a1-4)Gal(b1-4)Glc
Summary of the method: as §1

[7] = molecular target: Fuc(a1-2)Gal(b1-3)GalNAc(b1-4)[Neu5Ac(a2-3)]Gal(b1-4)Glc
Summary of the method: as §1

[8] = molecular target: Fuc(a1-2)Gal(b1-3)GlcNAc
Summary of the method: as §1

[9] = molecular target: Fuc(a1-2)Gal(b1-3)GlcNAc(b1-2)Man(a1-3)[Fuc(a1-2)Gal(b1-3)GlcNAc(b1-2)Man(a1-6)]Man(b1-4)GlcNAc(b1-4)GlcNAc
Summary of the method: as §1

[10] = molecular target: Fuc(a1-2)Gal(b1-3)GlcNAc(b1-2)Man(a1-3)[Fuc(a1-2)Gal(b1-3)GlcNAc(b1-2)Man(a1-6)]Man(b1-4)GlcNAc(b1-4)[Fuc(a1-6)]GlcNAc
Summary of the method: as §1

[11] = molecular target: Fuc(a1-2)Gal(b1-3)GlcNAc(b1-3)Gal(b1-4)Glc
Summary of the method: as §1

[12] = molecular target: Fuc(a1-2)Gal(b1-3)GlcNAc(b1-3)GalNAc
Summary of the method: as §1

[13] = molecular target: Fuc(a1-2)Gal(b1-3)GlcNAc(b1-3)[Fuc(a1-2)Gal(b1-3)GlcNAc(b1-6)]GalNAc
Summary of the method: as §1

[14] = molecular target: Fuc(a1-2)Gal(b1-3)GlcNAc(b1-3)[Gal(b1-4)GlcNAc(b1-6)]Gal(b1-4)Glc
Summary of the method: as §1

[15] = molecular target: Fuc(a1-2)Gal(b1-3)GlcNAc(b1-3)[Neu5Ac(a2-6)Gal(b1-4)GlcNAc(b1-6)]Gal(b1-4)Glc
Summary of the method: as §1

[16] = molecular target: Fuc(a1-2)Gal(b1-3)GlcNAc6S
Summary of the method: as §1

[17] = molecular target: Fuc(a1-2)Gal(b1-3)[Fuc(a1-4)]GlcNAc
Summary of the method: as §1

[18] = molecular target: Fuc(a1-2)Gal(b1-3)[Fuc(a1-4)]GlcNAc(b1-2)Man(a1-3)[Fuc(a1-2)Gal(b1-3)[Fuc(a1-4)]GlcNAc(b1-2)Man(a1-3)]Man(b1-4)GlcNAc(b1-4)GlcNAc
Summary of the method: as §1

[19] = molecular target: Fuc(a1-2)Gal(b1-3)[Fuc(a1-4)]GlcNAc(b1-2)Man(a1-3)[Fuc(a1-2)Gal(b1-3)[Fuc(a1-4)]GlcNAc(b1-2)Man(a1-6)]Man(b1-4)GlcNAc(b1-4)[Fuc(a1-6)]GlcNAc(b1-4)[Fuc(a1-6)]GlcNAc
Summary of the method: as §1

[20] = molecular target: Fuc(a1-2)Gal(b1-3)[Fuc(a1-4)]GlcNAc(b1-3)[Fuc(a1-3)[Gal(b1-4)]GlcNAc(b1-6)]Gal(b1-4)Glc
Summary of the method: as §1

[21] = molecular target: Fuc(a1-2)Gal(b1-3)[Fuc(a1-4)]GlcNAc(b1-3)[Gal(b1-4)GlcNAc(b1-6)]Gal(b1-4)Glc
Summary of the method: as §1

[22] = molecular target: Fuc(a1-2)Gal(b1-4)Glc
Summary of the method: as §1

[23] = molecular target: Fuc(a1-2)Gal(b1-4)Glc6S
Summary of the method: as §1

[24] = molecular target: Fuc(a1-2)Gal(b1-4)GlcNAc
Summary of the method: as §1

[25] = molecular target: Fuc(a1-2)Gal(b1-4)GlcNAc(b1-2)Man
Summary of the method: as §1

[26] = molecular target: Fuc(a1-2)Gal(b1-4)GlcNAc(b1-2)Man(a1-3)[Fuc(a1-2)Gal(b1-4)GlcNAc(b1-2)Man(a1-6)]Man(b1-4)GlcNAc(b1-4)GlcNAc
Summary of the method: as §1

[27] = molecular target: Fuc(a1-2)Gal(b1-4)GlcNAc(b1-2)Man(a1-3)[Fuc(a1-2)Gal(b1-4)GlcNAc(b1-2)Man(a1-6)]Man(b1-4)GlcNAc(b1-4)[Fuc(a1-6)]GlcNAc
Summary of the method: as §1

[28] = molecular target: Fuc(a1-2)Gal(b1-4)GlcNAc(b1-2)[Fuc(a1-2)Gal(b1-4)GlcNAc(b1-4)]Man(a1-3)[Fuc(a1-2)Gal(b1-4)GlcNAc(b1-2)Man(a1-6)]Man(b1-4)GlcNAc(b1-4)GlcNAc
Summary of the method: as §1

[29] = molecular target: Fuc(a1-2)Gal(b1-4)GlcNAc(b1-3)Gal(b1-4)GlcNAc
Summary of the method: as §1

[30] = molecular target: Fuc(a1-2)Gal(b1-4)GlcNAc(b1-3)Gal(b1-4)GlcNAc(b1-2)Man(a1-3)[Fuc(a1-2)Gal(b1-4)GlcNAc(b1-3)Gal(b1-4)GlcNAc(b1-2)Man(a1-6)]Man(b1-4)GlcNAc(b1-4)GlcNAc
Summary of the method: as §1

[31] = molecular target: Fuc(a1-2)Gal(b1-4)GlcNAc(b1-3)Gal(b1-4)GlcNAc(b1-3)Gal(b1-4)GlcNAc
Summary of the method: as §1

[32] = molecular target: Fuc(a1-2)Gal(b1-4)GlcNAc(b1-3)GalNAc
Summary of the method: as §1

[33] = molecular target: Fuc(a1-2)Gal(b1-4)GlcNAc(b1-3)[Fuc(a1-2)Gal(b1-4)GlcNAc(b1-6)]GalNAc
Summary of the method: as §1

[34] = molecular target: Fuc(a1-2)Gal(b1-4)GlcNAc(b1-3)[Fuc(a1-3)[Gal(b1-4)]GlcNAc(b1-6)]Gal(b1-4)Glc
Summary of the method: as §1

[35] = molecular target: Fuc(a1-2)Gal(b1-4)GlcNAc(b1-6)GalNAc
Summary of the method: as §1

[36] = molecular target: Fuc(a1-2)Gal(b1-4)GlcNAc6S
Summary of the method: as §1

[37] = molecular target: Fuc(a1-2)Gal(b1-4)[Fuc(a1-3)]GlcNAc
Summary of the method: as §1

B1: SJCP1531 (Schistosoma japonicum) (protein)
chain: MFKVRIINLVNISTVLLLINLLQTKSQVNVEQLVTVLEVNIKAQLKNKTTEVLVEWNPLYQDNSMPEYRKLLDETCKLFLPFVNEKVPPSTYGGECTNANFSEAPQDGSYSRVNAELRLIYKYSDNPQIQTDRLQDDLNDREEFITSESSFVAYNPKFTVKIEKLFIPISESQTTPPPTTAKNDASKKDDDDNGGEDSKAPIDTFAMTASGNKGKKDDDDNGGEDSKAPIDTFAMTASGSKDERSTWTIIGIITLVVLIFVVIGGGITVFVKRC
B1 was tested, and the “glycan array binding signal (z-score)” value [1] was 0.475, the “glycan array binding signal (z-score)” value [2] was -0.01 and the “glycan array binding signal (z-score)” value [3] was -1.49. The “glycan array binding signal (z-score)” value [4] was -0.571, the “glycan array binding signal (z-score)” value [5] was -0.244 and the “glycan array binding signal (z-score)” value [6] was -0.517. The “glycan array binding signal (z-score)” value [7] was -0.648, the “glycan array binding signal (z-score)” value [8] was -1.13 and the “glycan array binding signal (z-score)” value [9] was -0.207. The “glycan array binding signal (z-score)” value [10] was 0.318, the “glycan array binding signal (z-score)” value [11] was -1.19 and the “glycan array binding signal (z-score)” value [12] was -0.217. The “glycan array binding signal (z-score)” value [13] was -1.13, the “glycan array binding signal (z-score)” value [14] was -1.05 and the “glycan array binding signal (z-score)” value [15] was -1.34. For the same binder, the “glycan array binding signal (z-score)” value [16] was -0.955, the “glycan array binding signal (z-score)” value [17] was 0.144 and the “glycan array binding signal (z-score)” value [18] was 0.767. For the same binder, the “glycan array binding signal (z-score)” value [19] was 1.79, the “glycan array binding signal (z-score)” value [20] was -0.454 and the “glycan array binding signal (z-score)” value [21] was 0.498. For the same binder, the “glycan array binding signal (z-score)” value [22] was 0.074, the “glycan array binding signal (z-score)” value [23] was -0.427 and the “glycan array binding signal (z-score)” value [24] was -0.359. The “glycan array binding signal (z-score)” value [25] was -0.023, the “glycan array binding signal (z-score)” value [26] was -0.454 and the “glycan array binding signal (z-score)” value [27] was 0.332. The “glycan array binding signal (z-score)” value [28] was 2.3, the “glycan array binding signal (z-score)” value [29] was -0.674 and the “glycan array binding signal (z-score)” value [30] was 0.352. The “glycan array binding signal (z-score)” value [31] was -1.15, the “glycan array binding signal (z-score)” value [32] was 0.199 and the “glycan array binding signal (z-score)” value [33] was -0.084. For the same binder, the “glycan array binding signal (z-score)” value [34] was 0.016, the “glycan array binding signal (z-score)” value [35] was -0.358 and the “glycan array binding signal (z-score)” value [36] was -0.85. For the same binder, the “glycan array binding signal (z-score)” value [37] was 0.016.
